Assay results published in PubChem BioAssay AID210 (DTP/NCI, 2004).
The list shows only some results of the screen, not a fair sample: it is rich in T/C values a quarter to a half above the control, in often repeated tests (any T/C) and in doses without a T/C. Further doses and runs are listed elsewhere. T/C: endpoint of the treated group in % of that of the vehicle group. Some entries give survivors of the animals treated and no T/C: the source files T/C as zero there, which appears to mark a toxic dose or a test without result, not a measured value. Some survivor counts are full or nearly so, which does not show that the dose was tolerated: survival well below the control is almost never listed, so the zero probably covers shortened survival too. Counts of survivors are from the toxicity check (mostly the fifth day) where no day follows; animals may have died later. Schedule codes are those of the source, read here as Q, the interval in days (D) or hours (H), X, the number of doses. Some entries were tested several times; the values are given in rising order. For survival time, this PubChem deposit counts one and a half times the control or more as active, and values a quarter to a half above the control carry no call in these data; other NCI protocols may use other cut-offs. Some T/C values carry the count of animals alive at the toxicity check (mostly the fifth day); without a count, all were alive then.

Test system: CD2F1 mice, ip Colon 26 adenocarcinoma, median survival T/C
Experiment: NCI In Vivo Anticancer Drug Screen. Data for tumor model Colon 26 Adenocarcinoma (intraperitoneal) in CD2F1 (CDF1) mice
Conditions: T/C endpoint: median survival time, higher T/C = longer survival
Experimental: The antitumor activity of compounds was measured in mice bearing transplantable tumors. Survival or tumor size were measured and the results are expressed as the measurement made in the treated group (T) divided by the measurement made in the vehicle treated control group (C). The tumor model used in this assay is Colon 26 Adenocarcinoma (intraperitoneal) in CD2F1 (CDF1) mice

[1] = dose: 100.0 mg/kg/injection, schedule: Q04DX003 (ip), vehicle: Klucel (hydroxypropylcellulose) (HPC)
[2] = dose: 200.0 mg/kg/injection, schedule: Q04DX003 (ip), vehicle: Klucel (hydroxypropylcellulose) (HPC)
[3] = dose: 400.0 mg/kg/injection, schedule: Q04DX003 (ip), vehicle: Klucel (hydroxypropylcellulose) (HPC)

COc1cc(NS(C)(=O)=O)ccc1Nc1c2ccccc2nc2ccccc12
T/C (dose: 2.0 mg/kg/injection, schedule: Q04DX002 (ip), vehicle: other): 132 % of control | T/C (dose: 4.0 mg/kg/injection, schedule: Q04DX003 (ip), vehicle: other): 136 % of control

[I][Hg][CH2]C1OCCOC1[CH2][Hg][I] (centres undefined)
survivor count [1]: 9 of 10 | survivor count [2]: 7 of 10 | survivor count [3]: 0 of 10

O=S(=O)(O)O
survivor count (dose: 100.0 mg/kg/injection, schedule: Q01DX009 (ip), vehicle: saline with Tween-80): 10 of 10

CSc1cc(=O)n2c3ccccc3c3ccnc1c32
T/C (dose: 10.0 mg/kg/injection, schedule: Q04DX003 (ip), vehicle: saline with Tween-80): 138 % of control | survivor count (dose: 40.0 mg/kg/injection, schedule: Q04DX003 (ip), vehicle: saline with Tween-80): 3 of 10 | survivor count (dose: 80.0 mg/kg/injection, schedule: Q04DX003 (ip), vehicle: saline with Tween-80): 0 of 10

CCNCCNc1ccc(NCCNCC)c2c1C(=O)c1ccccc1C2=O
T/C (dose: 2.0 mg/kg/injection, schedule: Q01DX009 (ip), vehicle: acid diluted with saline): 126 % of control | T/C (dose: 4.0 mg/kg/injection, schedule: Q01DX009 (ip), vehicle: acid diluted with saline): 145 % of control | survivor count (dose: 32.0 mg/kg/injection, schedule: Q01DX009 (ip), vehicle: acid diluted with saline): 5 of 10 and 10 of 10

CC(=O)OC1C2(CC3N4C(=O)C5(CO)SSC4(CC31O)C(=O)N5C)OC(C)C(C)(C)C2=O (centres undefined)
survivor count (dose: 10.0 mg/kg/injection, schedule: Q04DX002 (ip), vehicle: saline): 0 of 10 | survivor count (dose: 20.0 mg/kg/injection, schedule: Q04DX002 (ip), vehicle: saline): 1 of 10

S=c1nc[nH]c2nc[nH]c12
T/C (dose: 6.25 mg/kg/injection, schedule: Q04DX003 (ip), vehicle: Klucel (hydroxypropylcellulose) (HPC)): 128 % of control | T/C (dose: 12.5 mg/kg/injection, schedule: Q04DX003 (ip), vehicle: Klucel (hydroxypropylcellulose) (HPC)): 129 % of control | T/C (dose: 25.0 mg/kg/injection, schedule: Q04DX003 (ip), vehicle: Klucel (hydroxypropylcellulose) (HPC)): 143 % of control | T/C (dose: 50.0 mg/kg/injection, schedule: Q04DX003 (ip), vehicle: Klucel (hydroxypropylcellulose) (HPC)): 131 % of control | T/C [1]: 141 % of control | survivor count [1]: 10 of 10 | survivor count [2]: 1 of 10 and 10 of 10 | survivor count [3]: 10 of 10

NC(=O)c1cn(C2OC(CO)C(O)C2O)c2ncnc(N)c12 (centres undefined)
T/C (dose: 0.5 mg/kg/injection, schedule: Q04DX003 (ip), vehicle: Klucel (hydroxypropylcellulose) (HPC)): 139 % of control | T/C (dose: 1.0 mg/kg/injection, schedule: Q04DX003 (ip), vehicle: Klucel (hydroxypropylcellulose) (HPC)): 140 % of control | T/C (dose: 4.0 mg/kg/injection, schedule: Q04DX003 (ip), vehicle: Klucel (hydroxypropylcellulose) (HPC)): 144 % of control | survivor count (dose: 8.0 mg/kg/injection, schedule: Q04DX003 (ip), vehicle: Klucel (hydroxypropylcellulose) (HPC)): 4 of 10

CN(C)CCNc1ccc(O)c2c1C(=O)c1ccccc1C2=O
T/C (dose: 40.0 mg/kg/injection, schedule: Q01DX009 (ip), vehicle: acid diluted with saline): 135 % of control | survivor count (dose: 160.0 mg/kg/injection, schedule: Q01DX009 (ip), vehicle: acid diluted with saline): 7 of 10 and 10 of 10 | survivor count (dose: 320.0 mg/kg/injection, schedule: Q01DX009 (ip), vehicle: acid diluted with saline): 7 of 10

Cc1c2oc3c(C)c([N+](=O)[O-])cc(C(=O)NC4C(=O)NC(C(C)C)C(=O)N5CCCC5C(=O)N(C)CC(=O)N(C)C(C(C)C)C(=O)OC4C)c3nc-2c(C(=O)NC2C(=O)NC(C(C)C)C(=O)N3CCCC3C(=O)N(C)CC(=O)N(C)C(C(C)C)C(=O)OC2C)c(N)c1=O (centres undefined)
T/C (dose: 1000.0 micrograms/kg/injection, schedule: Q01DX001 (ip), vehicle: saline + alcohol): 142 % of control | survivor count (dose: 2000.0 micrograms/kg/injection, schedule: Q01DX001 (ip), vehicle: saline + alcohol): 1 of 8 | survivor count (dose: 4000.0 micrograms/kg/injection, schedule: Q01DX001 (ip), vehicle: saline + alcohol): 1 of 8

Oc1cc2c3c(c1)c1cc4c(cc1c[n+]3CC2)OCO4
T/C (dose: 3.12 mg/kg/injection, schedule: Q01DX009 (ip), vehicle: distilled water + Tween-80): 147 % of control | T/C (dose: 6.25 mg/kg/injection, schedule: Q01DX009 (ip), vehicle: distilled water + Tween-80): 126 % of control | T/C (dose: 12.5 mg/kg/injection, schedule: Q01DX009 (ip), vehicle: distilled water + Tween-80): 131 % of control | T/C (dose: 12.5 mg/kg/injection, schedule: Q04DX003 (ip), vehicle: distilled water + Tween-80): 147 % of control | survivor count (dose: 25.0 mg/kg/injection, schedule: Q01DX009 (ip), vehicle: distilled water + Tween-80): 8 of 10 | T/C (dose: 25.0 mg/kg/injection, schedule: Q04DX003 (ip), vehicle: distilled water + Tween-80): 147 % of control | survivor count (dose: 50.0 mg/kg/injection, schedule: Q01DX009 (ip), vehicle: distilled water + Tween-80): 0 of 10 | T/C (dose: 50.0 mg/kg/injection, schedule: Q04DX003 (ip), vehicle: distilled water + Tween-80): 130 % of control [8 of 10 alive]

CCC1OCC(C(Cl)CCl)O1 (centres undefined)
survivor count [3]: 9 of 10

O=P1(N(CCCl)CCCl)NCCCO1 (centres undefined)
T/C (dose: 51.0 mg/kg/injection, schedule: Q07DX003 (ip), vehicle: saline): 130 % of control | T/C (dose: 73.0 mg/kg/injection, schedule: Q07DX003 (ip), vehicle: saline, evaluated on day 60): 143 % of control | T/C (dose: 73.0 mg/kg/injection, schedule: Q07DX003 (ip), vehicle: saline, evaluated on day 70): 133 % of control | T/C (dose: 105.0 mg/kg/injection, schedule: Q07DX003 (ip), vehicle: saline): 146 % of control | T/C (dose: 150.0 mg/kg/injection, schedule: Q03DX002 (ip), vehicle: saline): 126 % of control | T/C (dose: 150.0 mg/kg/injection, schedule: Q07DX003 (ip), vehicle: saline): 131 % of control

O=C1c2ccccc2C(=O)c2c(NCCCNCCO)ccc(NCCCNCCO)c21
T/C (dose: 8.0 mg/kg/injection, schedule: Q01DX009 (ip), vehicle: acid diluted with saline): 134 % of control | survivor count (dose: 128.0 mg/kg/injection, schedule: Q01DX009 (ip), vehicle: acid diluted with saline): 0 of 10

O=c1[nH]c(=O)n(C2CC(O)C(CO)O2)cc1F (centres undefined)
T/C (dose: 80.0 mg/kg/injection, schedule: Q07DX003 (ip), vehicle: saline): 145 % of control

Cc1cn(C2CC(O)C(CO)O2)c(=O)[nH]c1=O (centres undefined)
survivor count (dose: 64.0 mg/kg/injection, schedule: Q04DX002 (ip), vehicle: saline): 10 of 10 | survivor count (dose: 256.0 mg/kg/injection, schedule: Q04DX002 (ip), vehicle: saline): 10 of 10 | survivor count (dose: 512.0 mg/kg/injection, schedule: Q04DX002 (ip), vehicle: saline): 10 of 10

CC(CN1CC(=O)NC(=O)C1)N1CC(=O)NC(=O)C1 (centres undefined)
T/C [1]: 135 % of control | T/C [2]: 143 % of control | T/C [3]: 135 % of control

Cc1cc(=O)n2c3c(c4c(cc13)c(CN(C)C)cc(=O)n4C)OC2
survivor count (dose: 100.0 mg/kg/injection, schedule: Q04DX002 (ip), vehicle: saline with Tween-80): 3 of 10 | survivor count (dose: 200.0 mg/kg/injection, schedule: Q04DX002 (ip), vehicle: saline with Tween-80): 0 of 10

CCCCCCCC(=O)[O][Hg][CH2]C1COC([CH2][Hg][O]C(=O)CCCCCCC)CO1 (centres undefined)
survivor count (dose: 50.0 mg/kg/injection, schedule: Q04DX003 (ip), vehicle: saline with Tween-80): 2 of 10 | survivor count (dose: 100.0 mg/kg/injection, schedule: Q04DX003 (ip), vehicle: saline with Tween-80): 0 of 10 | survivor count (dose: 200.0 mg/kg/injection, schedule: Q04DX003 (ip), vehicle: saline with Tween-80): 0 of 10

COC12[C@@H]3N[C@@H]3CN1C1=C(C(=O)C(NCCSSCCNC3=C(C)C(=O)C4=C(C3=O)C(COC(N)=O)[C@]3(OC)C5N[C@@H]5CN43)=C(C)C1=O)[C@@H]2COC(N)=O (some centres undefined)
T/C (dose: 6.0 mg/kg/injection, schedule: Q03DX002 (ip), vehicle: other): 132 % of control | survivor count (dose: 12.0 mg/kg/injection, schedule: Q01DX005 (ip), vehicle: other): 8 of 8 on day 14

CC(=O)OCC1(C)C(O)CCC2(C)C1CCC1CC3CC12CCC3(O)CO (centres undefined)
survivor count (dose: 200.0 mg/kg/injection, schedule: Q04DX002 (ip), vehicle: distilled water + Tween-80): 9 of 10
